Laboratory results published in the supplement of paper PMC6411743.
± gives the standard deviation of the averaged measurements. Only a part is listed here, and it is no random draw. Most values lie at the level of the controls, where differences are scatter.

Chains of the proteins cited; added tags and fusions are not shown. Lines headed by an entry give the natural chain unless they say otherwise; changes in a name come on top.
UniProt P61006: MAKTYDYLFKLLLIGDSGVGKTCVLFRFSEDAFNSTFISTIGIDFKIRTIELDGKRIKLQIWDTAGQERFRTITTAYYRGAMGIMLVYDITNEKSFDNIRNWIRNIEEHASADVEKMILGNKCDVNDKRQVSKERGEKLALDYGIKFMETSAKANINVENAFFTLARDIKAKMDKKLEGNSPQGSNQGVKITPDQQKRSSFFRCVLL
UniProt P62256: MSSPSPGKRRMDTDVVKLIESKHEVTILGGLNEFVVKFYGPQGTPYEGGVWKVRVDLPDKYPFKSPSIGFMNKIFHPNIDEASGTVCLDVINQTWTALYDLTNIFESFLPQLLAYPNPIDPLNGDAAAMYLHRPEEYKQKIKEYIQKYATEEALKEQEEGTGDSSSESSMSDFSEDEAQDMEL
UniProt Q04727: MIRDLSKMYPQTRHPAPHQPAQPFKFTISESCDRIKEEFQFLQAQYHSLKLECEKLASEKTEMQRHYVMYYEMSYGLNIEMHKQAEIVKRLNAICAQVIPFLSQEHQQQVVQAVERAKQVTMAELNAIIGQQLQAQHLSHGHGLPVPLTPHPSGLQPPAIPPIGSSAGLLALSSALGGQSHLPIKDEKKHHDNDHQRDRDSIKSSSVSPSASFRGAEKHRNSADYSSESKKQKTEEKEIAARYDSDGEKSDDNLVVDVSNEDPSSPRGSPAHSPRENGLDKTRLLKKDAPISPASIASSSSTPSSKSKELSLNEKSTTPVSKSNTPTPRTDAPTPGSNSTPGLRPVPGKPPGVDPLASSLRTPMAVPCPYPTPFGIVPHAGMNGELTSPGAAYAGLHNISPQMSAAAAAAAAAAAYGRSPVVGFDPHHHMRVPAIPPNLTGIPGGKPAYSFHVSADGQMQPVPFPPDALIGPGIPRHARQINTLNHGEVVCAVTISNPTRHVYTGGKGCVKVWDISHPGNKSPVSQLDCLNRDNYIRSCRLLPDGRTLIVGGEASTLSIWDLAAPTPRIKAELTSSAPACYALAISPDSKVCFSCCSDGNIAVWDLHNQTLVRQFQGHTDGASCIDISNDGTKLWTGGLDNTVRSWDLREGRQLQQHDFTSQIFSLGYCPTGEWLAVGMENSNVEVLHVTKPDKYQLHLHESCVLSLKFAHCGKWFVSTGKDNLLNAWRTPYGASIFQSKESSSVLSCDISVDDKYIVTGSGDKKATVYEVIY
UniProt P56192: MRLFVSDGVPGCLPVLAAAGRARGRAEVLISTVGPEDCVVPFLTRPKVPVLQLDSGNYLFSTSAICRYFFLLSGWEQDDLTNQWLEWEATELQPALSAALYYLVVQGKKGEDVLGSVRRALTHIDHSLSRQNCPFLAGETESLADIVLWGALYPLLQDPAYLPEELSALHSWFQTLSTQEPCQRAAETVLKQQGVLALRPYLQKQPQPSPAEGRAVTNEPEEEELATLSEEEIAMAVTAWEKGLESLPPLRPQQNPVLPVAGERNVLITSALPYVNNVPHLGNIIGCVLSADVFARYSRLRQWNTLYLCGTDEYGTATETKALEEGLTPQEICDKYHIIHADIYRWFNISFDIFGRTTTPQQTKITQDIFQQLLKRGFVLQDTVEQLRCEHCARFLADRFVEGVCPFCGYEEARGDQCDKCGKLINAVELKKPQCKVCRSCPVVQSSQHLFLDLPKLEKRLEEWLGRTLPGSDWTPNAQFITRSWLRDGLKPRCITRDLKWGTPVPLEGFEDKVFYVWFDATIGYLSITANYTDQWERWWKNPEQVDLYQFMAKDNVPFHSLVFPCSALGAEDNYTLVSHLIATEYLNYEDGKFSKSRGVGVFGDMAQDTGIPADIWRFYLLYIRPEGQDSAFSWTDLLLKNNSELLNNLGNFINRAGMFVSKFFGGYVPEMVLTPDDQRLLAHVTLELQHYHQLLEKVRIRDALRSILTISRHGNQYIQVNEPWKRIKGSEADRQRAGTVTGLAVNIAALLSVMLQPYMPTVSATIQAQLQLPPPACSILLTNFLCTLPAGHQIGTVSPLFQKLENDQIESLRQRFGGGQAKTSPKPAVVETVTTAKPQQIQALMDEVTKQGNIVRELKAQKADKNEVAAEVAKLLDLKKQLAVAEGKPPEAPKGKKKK
UniProt P61225: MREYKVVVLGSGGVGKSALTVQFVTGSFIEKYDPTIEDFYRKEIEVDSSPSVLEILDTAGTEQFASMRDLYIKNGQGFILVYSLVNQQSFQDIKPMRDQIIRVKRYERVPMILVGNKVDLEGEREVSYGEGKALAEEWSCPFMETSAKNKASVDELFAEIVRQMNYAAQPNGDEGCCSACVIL
UniProt P57772: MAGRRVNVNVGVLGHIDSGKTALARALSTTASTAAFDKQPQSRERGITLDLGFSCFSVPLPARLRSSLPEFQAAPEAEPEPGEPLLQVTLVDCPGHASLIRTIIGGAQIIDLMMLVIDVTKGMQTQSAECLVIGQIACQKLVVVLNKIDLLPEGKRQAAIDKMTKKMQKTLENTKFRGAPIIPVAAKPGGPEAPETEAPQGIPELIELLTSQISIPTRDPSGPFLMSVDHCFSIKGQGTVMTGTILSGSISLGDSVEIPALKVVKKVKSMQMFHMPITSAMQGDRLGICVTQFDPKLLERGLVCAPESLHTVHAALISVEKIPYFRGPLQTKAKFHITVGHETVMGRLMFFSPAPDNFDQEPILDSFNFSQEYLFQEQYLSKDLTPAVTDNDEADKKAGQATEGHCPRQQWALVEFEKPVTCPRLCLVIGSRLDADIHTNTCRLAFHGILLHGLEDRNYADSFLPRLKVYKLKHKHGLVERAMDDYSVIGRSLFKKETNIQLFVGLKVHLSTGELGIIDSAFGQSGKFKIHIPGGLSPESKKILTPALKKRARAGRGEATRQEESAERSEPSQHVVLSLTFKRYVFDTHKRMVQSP
UniProt P62316, whole entry: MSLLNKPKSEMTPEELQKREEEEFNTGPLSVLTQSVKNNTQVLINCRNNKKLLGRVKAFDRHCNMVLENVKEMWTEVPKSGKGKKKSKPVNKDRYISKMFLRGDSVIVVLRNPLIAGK
UniProt Q02535: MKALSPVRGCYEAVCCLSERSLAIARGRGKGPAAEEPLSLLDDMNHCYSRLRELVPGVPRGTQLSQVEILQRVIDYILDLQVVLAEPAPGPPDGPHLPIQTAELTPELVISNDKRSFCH
UniProt Q01658: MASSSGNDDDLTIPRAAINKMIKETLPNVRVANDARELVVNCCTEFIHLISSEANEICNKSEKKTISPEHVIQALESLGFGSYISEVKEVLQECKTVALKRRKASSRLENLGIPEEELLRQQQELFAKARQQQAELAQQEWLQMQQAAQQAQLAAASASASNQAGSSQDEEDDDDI
UniProt Q06547, whole entry: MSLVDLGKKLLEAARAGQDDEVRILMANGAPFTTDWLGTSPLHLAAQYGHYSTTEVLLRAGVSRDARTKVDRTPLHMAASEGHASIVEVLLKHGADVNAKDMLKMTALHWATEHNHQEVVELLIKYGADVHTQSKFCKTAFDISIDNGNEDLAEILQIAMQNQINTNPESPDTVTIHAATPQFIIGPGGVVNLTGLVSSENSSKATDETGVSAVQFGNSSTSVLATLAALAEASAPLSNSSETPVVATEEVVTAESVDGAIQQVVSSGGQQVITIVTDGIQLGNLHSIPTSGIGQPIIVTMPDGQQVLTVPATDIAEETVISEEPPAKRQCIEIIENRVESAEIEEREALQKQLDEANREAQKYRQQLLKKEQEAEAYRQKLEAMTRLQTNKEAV
UniProt P60891: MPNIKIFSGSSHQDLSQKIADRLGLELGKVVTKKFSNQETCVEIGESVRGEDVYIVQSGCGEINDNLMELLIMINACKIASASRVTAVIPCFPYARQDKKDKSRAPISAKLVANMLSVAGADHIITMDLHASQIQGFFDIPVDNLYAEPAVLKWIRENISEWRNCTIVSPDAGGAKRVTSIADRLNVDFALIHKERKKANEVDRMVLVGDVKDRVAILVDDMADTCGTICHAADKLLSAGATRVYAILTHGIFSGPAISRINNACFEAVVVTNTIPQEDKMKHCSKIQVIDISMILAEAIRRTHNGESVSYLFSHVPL
UniProt P61599, whole entry: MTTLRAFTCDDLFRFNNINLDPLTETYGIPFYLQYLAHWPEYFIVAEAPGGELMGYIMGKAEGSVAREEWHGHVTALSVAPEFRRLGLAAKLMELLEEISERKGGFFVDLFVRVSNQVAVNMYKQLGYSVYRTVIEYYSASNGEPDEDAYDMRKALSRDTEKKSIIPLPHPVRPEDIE
UniProt P60903, whole entry: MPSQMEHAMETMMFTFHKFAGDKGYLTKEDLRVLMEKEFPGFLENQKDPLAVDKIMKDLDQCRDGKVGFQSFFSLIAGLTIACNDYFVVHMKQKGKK
UniProt P61289: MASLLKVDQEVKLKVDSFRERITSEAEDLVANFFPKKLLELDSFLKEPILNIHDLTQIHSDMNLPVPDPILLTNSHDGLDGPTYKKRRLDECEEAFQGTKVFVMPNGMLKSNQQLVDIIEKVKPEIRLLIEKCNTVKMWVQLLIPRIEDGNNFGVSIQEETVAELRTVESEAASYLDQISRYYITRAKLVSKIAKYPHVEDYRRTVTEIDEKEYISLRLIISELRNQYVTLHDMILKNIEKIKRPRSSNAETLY
UniProt P56589: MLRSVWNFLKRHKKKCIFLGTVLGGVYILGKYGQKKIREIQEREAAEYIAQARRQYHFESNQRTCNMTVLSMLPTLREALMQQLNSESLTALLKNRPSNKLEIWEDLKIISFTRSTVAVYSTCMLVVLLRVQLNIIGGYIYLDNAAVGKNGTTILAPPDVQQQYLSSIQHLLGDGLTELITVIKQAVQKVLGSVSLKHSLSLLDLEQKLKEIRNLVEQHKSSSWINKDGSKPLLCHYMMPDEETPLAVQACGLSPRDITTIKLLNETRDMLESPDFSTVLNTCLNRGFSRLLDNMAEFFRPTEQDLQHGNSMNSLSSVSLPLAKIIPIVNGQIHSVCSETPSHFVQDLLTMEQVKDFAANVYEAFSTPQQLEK
UniProt P61960, whole entry: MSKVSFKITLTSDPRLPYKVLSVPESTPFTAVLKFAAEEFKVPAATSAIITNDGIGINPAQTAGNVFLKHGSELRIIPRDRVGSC
UniProt P55884, whole entry: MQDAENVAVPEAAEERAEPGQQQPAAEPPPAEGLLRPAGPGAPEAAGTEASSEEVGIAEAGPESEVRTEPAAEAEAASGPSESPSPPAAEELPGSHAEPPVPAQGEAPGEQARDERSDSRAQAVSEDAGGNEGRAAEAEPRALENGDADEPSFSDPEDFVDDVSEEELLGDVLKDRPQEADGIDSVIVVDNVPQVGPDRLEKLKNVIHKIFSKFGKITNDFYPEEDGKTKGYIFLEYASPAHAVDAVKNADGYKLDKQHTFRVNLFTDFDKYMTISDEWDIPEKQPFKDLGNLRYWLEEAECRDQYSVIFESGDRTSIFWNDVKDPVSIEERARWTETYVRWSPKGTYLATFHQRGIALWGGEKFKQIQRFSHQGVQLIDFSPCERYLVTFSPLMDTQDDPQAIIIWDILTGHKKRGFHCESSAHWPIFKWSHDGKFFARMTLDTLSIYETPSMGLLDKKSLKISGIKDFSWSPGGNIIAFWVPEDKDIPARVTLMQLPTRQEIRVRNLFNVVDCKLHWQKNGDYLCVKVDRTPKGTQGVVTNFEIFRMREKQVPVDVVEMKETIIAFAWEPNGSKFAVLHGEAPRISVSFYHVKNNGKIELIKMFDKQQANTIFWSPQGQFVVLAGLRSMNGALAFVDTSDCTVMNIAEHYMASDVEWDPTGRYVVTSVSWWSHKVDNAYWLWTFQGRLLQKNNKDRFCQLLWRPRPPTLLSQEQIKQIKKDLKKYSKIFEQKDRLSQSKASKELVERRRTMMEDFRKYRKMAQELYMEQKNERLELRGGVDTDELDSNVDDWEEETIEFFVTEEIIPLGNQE
UniProt P61981: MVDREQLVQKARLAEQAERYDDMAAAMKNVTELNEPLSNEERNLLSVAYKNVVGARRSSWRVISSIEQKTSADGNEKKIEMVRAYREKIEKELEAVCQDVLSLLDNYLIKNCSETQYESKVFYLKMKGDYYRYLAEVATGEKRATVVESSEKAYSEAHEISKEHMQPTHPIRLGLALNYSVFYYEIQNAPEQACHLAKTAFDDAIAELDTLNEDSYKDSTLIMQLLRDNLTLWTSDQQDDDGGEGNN
UniProt P62195, whole entry: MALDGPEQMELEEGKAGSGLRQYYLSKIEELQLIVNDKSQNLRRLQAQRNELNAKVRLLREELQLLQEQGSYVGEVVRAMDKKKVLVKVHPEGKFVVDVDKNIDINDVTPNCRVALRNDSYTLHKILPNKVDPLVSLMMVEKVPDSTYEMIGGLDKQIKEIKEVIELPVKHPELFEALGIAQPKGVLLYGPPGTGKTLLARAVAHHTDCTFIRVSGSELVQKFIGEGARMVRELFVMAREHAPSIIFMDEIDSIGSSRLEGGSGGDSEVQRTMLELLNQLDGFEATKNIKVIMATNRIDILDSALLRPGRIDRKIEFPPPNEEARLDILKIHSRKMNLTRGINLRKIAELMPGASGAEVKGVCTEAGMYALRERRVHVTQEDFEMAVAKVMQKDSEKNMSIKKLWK

Compound: Nc1ncnc2c1ncn2[C@@H]1O[C@H](COP(=O)(O)OP(=O)(O)NP(=O)(O)O)[C@@H](O)[C@H]1O [adenylyl imidodiphosphate]
Assay: NP40-soluble protein abundance relative to vehicle (solubility fold change) (ratio); higher = more soluble protein in presence of AMP-PNP
How it was run: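 Each value is a fold change relative to the detergent-processed vehicle, calculated per replicate from vsn-normalised intensities. Jurkat crude lysate received eight concentrations (0.1 to 10 mM) for 10 min at room temperature and 3 min at 37 °C, then was solubilised in 0.8% NP40 with benzonase (60 min, 4 °C). The ultracentrifuged supernatant was TMT-labelled and run by LC-MS/MS in three independent experiments.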

Question: For RAB8A (UniProt P61006), which NP40-soluble protein abundance (concentration: 0.1mM) is on record?
Answer: The NP40-soluble protein abundance was 0.975 ± 0.03.

Question: What about the NP40-soluble protein abundance (concentration: 0.5mM) of the same target?
Answer: Its NP40-soluble protein abundance is 0.951 ± 0.026.

Question: What does the source list for UniProt P62256?
Answer: NP40-soluble protein abundance (concentration: 0.1mM): 0.984 ± 0.072; NP40-soluble protein abundance (concentration: 0.5mM): 1.02 ± 0.059

Question: Which NP40-soluble protein abundance (concentration: 0.1mM) does the source give for UniProt Q04727 and related entries here?
Answer: The NP40-soluble protein abundance was 0.972 ± 0.016.

Question: And the NP40-soluble protein abundance (concentration: 0.5mM)?
Answer: Its NP40-soluble protein abundance is 0.988 ± 0.071.

Question: With MARS (UniProt P56192) as the target, how does the NP40-soluble protein abundance (concentration: 0.1mM) read?
Answer: The NP40-soluble protein abundance was 1.01 ± 0.032.

Question: And the NP40-soluble protein abundance (concentration: 0.5mM)?
Answer: The NP40-soluble protein abundance was 1 ± 0.053.

Question: What does the source list for UniProt P61225?
Answer: NP40-soluble protein abundance (concentration: 0.1mM): 1.01 ± 0.12; NP40-soluble protein abundance (concentration: 0.5mM): 0.974 ± 0.16

Question: What does the source list for EEFSEC (UniProt P57772)?
Answer: NP40-soluble protein abundance (concentration: 0.1mM): 0.987 ± 0.027; NP40-soluble protein abundance (concentration: 0.5mM): 0.997 ± 0.025

Question: With UniProt P62316 as the target, how does the NP40-soluble protein abundance (concentration: 0.1mM) read?
Answer: The NP40-soluble protein abundance was 1 ± 0.038.

Question: What about the NP40-soluble protein abundance (concentration: 0.5mM) of the same target?
Answer: The NP40-soluble protein abundance was 1.07 ± 0.097.

Question: With UniProt Q02535 as the target, how does the NP40-soluble protein abundance (concentration: 0.1mM) read?
Answer: Its NP40-soluble protein abundance is 0.9759 ± 0.007.

Question: What about the NP40-soluble protein abundance (concentration: 0.5mM) of the same target?
Answer: The NP40-soluble protein abundance was 0.989 ± 0.012.

Question: How did the NP40-soluble protein abundance (concentration: 0.1mM) turn out when DR1 (UniProt Q01658) was run?
Answer: Its NP40-soluble protein abundance is 1.01 ± 0.13.

Question: And the NP40-soluble protein abundance (concentration: 0.5mM)?
Answer: Its NP40-soluble protein abundance is 1.01 ± 0.13.

Question: Which results are given for UniProt Q04864-2|Q04864?
Answer: NP40-soluble protein abundance (concentration: 0.1mM): 0.981 ± 0.028; NP40-soluble protein abundance (concentration: 0.5mM): 0.99 ± 0.011

Question: How did the NP40-soluble protein abundance (concentration: 0.1mM) turn out when UniProt Q06547 and related entries was run?
Answer: The NP40-soluble protein abundance was 0.986 ± 0.022.

Question: And the NP40-soluble protein abundance (concentration: 0.5mM)?
Answer: Its NP40-soluble protein abundance is 0.994 ± 0.068.

Question: UniProt P60891 was tested. Which NP40-soluble protein abundance (concentration: 0.1mM) did it give?
Answer: The NP40-soluble protein abundance was 0.896 ± 0.039.

Question: And the NP40-soluble protein abundance (concentration: 0.5mM)?
Answer: The NP40-soluble protein abundance was 0.851 ± 0.034.

Question: For NAA20 (UniProt P61599), which NP40-soluble protein abundance (concentration: 0.1mM) is on record?
Answer: The NP40-soluble protein abundance was 1.01 ± 0.058.

Question: And the NP40-soluble protein abundance (concentration: 0.5mM)?
Answer: The NP40-soluble protein abundance was 1.03 ± 0.064.

Question: Which results are given for S100A10 (UniProt P60903)?
Answer: NP40-soluble protein abundance (concentration: 0.1mM): 1.03 ± 0.06; NP40-soluble protein abundance (concentration: 0.5mM): 1.03 ± 0.14

Question: Which results are given for UniProt P61289 and related entries?
Answer: NP40-soluble protein abundance (concentration: 0.1mM): 0.979 ± 0.052; NP40-soluble protein abundance (concentration: 0.5mM): 0.944 ± 0.091

Question: For PEX3 (UniProt P56589), which NP40-soluble protein abundance (concentration: 0.1mM) is on record?
Answer: Its NP40-soluble protein abundance is 1.01 ± 0.019.

Question: What about the NP40-soluble protein abundance (concentration: 0.5mM) of the same target?
Answer: The NP40-soluble protein abundance was 0.967 ± 0.022.

Question: Which NP40-soluble protein abundance (concentration: 0.1mM) does the source give for MRPS6 (UniProt P82932) here?
Answer: The NP40-soluble protein abundance was 1.03 ± 0.024.

Question: And the NP40-soluble protein abundance (concentration: 0.5mM)?
Answer: Its NP40-soluble protein abundance is 1.07 ± 0.11.

Question: Which NP40-soluble protein abundance (concentration: 0.1mM) does the source give for UniProt P61960 and related entries here?
Answer: The NP40-soluble protein abundance was 0.986 ± 0.057.

Question: And the NP40-soluble protein abundance (concentration: 0.5mM)?
Answer: Its NP40-soluble protein abundance is 0.945 ± 0.032.

Question: Which NP40-soluble protein abundance (concentration: 0.1mM) does the source give for UniProt P55884 and related entries here?
Answer: The NP40-soluble protein abundance was 1.03 ± 0.029.

Question: What about the NP40-soluble protein abundance (concentration: 0.5mM) of the same target?
Answer: Its NP40-soluble protein abundance is 1.01 ± 0.059.

Question: What does the source list for UniProt P61981?
Answer: NP40-soluble protein abundance (concentration: 0.1mM): 0.953 ± 0.041; NP40-soluble protein abundance (concentration: 0.5mM): 1.02 ± 0.09

Question: P62158 (UniProt P0DP23) was tested. Which NP40-soluble protein abundance (concentration: 0.1mM) did it give?
Answer: The NP40-soluble protein abundance was 1.05 ± 0.048.

Question: What about the NP40-soluble protein abundance (concentration: 0.5mM) of the same target?
Answer: Its NP40-soluble protein abundance is 1.21 ± 0.14.

Question: What does the source list for UniProt P62195?
Answer: NP40-soluble protein abundance (concentration: 0.1mM): 0.99 ± 0.029; NP40-soluble protein abundance (concentration: 0.5mM): 0.976 ± 0.013
